Consider 2 substances from paper PMC12304194.

Protein sequences, listed by entry. Tags and fused reporters are not part of them.
UniProt O00401: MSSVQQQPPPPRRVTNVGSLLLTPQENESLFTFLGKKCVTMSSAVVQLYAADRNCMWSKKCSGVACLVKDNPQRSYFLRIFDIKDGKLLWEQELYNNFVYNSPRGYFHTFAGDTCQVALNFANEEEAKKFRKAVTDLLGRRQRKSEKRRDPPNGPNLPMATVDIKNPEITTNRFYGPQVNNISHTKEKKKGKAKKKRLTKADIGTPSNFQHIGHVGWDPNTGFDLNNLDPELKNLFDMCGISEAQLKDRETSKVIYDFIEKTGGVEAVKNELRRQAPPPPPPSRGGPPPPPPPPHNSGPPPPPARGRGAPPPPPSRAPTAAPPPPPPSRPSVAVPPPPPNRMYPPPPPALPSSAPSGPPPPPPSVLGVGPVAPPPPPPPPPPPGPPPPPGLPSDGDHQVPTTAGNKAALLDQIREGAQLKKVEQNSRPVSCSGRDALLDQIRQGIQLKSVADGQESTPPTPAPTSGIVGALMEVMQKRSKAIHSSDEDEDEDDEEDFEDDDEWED

Results are given in words; binding and its absence hold for the method and conditions named. In cells and extracts the contact can be indirect. Some entries that bind do so weakly or less than the wild type. For some assays here: Tags and fused reporters may be left off the sequences shown.

For one experiment, the target named is T1, Flag-tagged FBXW2 (UniProt Q9UKT8).
T1 sequence: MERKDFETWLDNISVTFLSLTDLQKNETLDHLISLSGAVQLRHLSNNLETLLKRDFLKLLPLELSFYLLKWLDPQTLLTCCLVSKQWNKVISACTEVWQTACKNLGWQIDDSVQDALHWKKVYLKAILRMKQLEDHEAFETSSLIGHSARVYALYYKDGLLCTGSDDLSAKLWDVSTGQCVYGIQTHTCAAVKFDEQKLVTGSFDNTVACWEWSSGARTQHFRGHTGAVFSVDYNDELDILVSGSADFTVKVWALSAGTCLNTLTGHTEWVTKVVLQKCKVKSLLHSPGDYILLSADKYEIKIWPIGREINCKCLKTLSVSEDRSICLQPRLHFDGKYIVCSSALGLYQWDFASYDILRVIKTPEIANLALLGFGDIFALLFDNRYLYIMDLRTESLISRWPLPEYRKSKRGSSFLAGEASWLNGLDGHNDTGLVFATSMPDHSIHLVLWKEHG
The experiment is described as follows: co-IP; Flag-tagged FBXW2 and Myc-tagged WASL transfected into HEK293T cells; Co-IP and immunoblot with the indicated antibodies.

Experiment [1] addresses T2, F-box and WD repeat domain-containing protein 2 (FBXW2) (human (endogenous in GC cells)) (UniProt Q9UKT8).
T2 sequence: T1 sequence
Put plainly: co-IP; endogenous FBXW2 and WASL in GC cells; which protein was precipitated is not told.

As for “Myc-tagged WASL (from UniProt O00401 1-505)”, the binding result in the experiment with Flag-tagged FBXW2 is “binds”. For “WASP-like actin nucleation-promoting factor (WASL) (from UniProt O00401 1-505)”, the binding result in experiment [1] is “binds”.
